Measured values as given in the supplement of paper PMC10338343.
± gives the standard deviation. Only a part is listed here, and it is no random draw. Many entries were measured with a wide error. Some of the results follow.

Each sequence was assayed on MIWI (PIWIL1) piRISC loaded with L1MC piRNA (30 nt) (assay: pre-steady-state target cleavage rate (min^-1); higher = faster piRNA-guided slicing of the target). Details: guide: L1MC piRNA 5'p-UAACUAAAUACUAUGCAAGCUGUAGGUCCU; auxiliary factor: none (no GTSF1).
In short: (§1)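 In Cleave-'n-Seq, a transcribed, DNA-blocked target RNA library (0.1 nM) was combined with 1 nM active affinity-purified piRISC bearing one synthetic guide, with or without 500 nM GTSF1 partner protein. Reactions ran in HEPES–potassium acetate buffer at 33 °C for 0–8 or 0–960 min. Uncleaved targets were sequenced and normalised to depth and to weakly complementary targets, three trials were pooled, and k3 was capped at 0.0001 min^-1. The pre-steady-state cleavage rate was obtained by fitting a burst-and-steady-state model.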

Sequence	pre-steady-state target cleavage rate
UCCUGGAACAGCUUGCUUAGUAUUUACAAA	0.00253 ± 0.0036
UCCUGGAUGAGGUUGCAUUGUAUUUAGUUA	0.00204 ± 0.0053
UCCUGGAUGAGGUUGGAUAGUAUUUAGUUA	0.000871 ± 0.0083
UCCUGGAUGUCGUUGCAUAGUACUUAGUUA	0.00272 ± 0.0033
UCCUGGUACAGCUACCAUAGUAUUUACAAA	0.000269 ± 0.014
UCCUGCUUCAGCUUCCAUAGUAUUUAGUUA	0.00253 ± 0.0026
UCCUGGAACAGCUUCCAUUGUAUUUAGUUA	0.0024 ± 0.0026
UCCUGGAUGUCGAUGCAUCGUAUUUAGUUA	0.0014 ± 0.0056
UCCUGGAUGAGCUUGCAUAGUAAAAAGUUA	0.000878 ± 0.0047
UCCUGGAUGUCGUUGCAUAGUAUUUUGUUA	0.00262 ± 0.0027
UCCUGGAUGUCCUUGCAUACUAUUAAGUUA	0.00091 ± 0.0064
UCCUGGAUGAGGUUGCAUAGUAAUUAGUUA	0.00206 ± 0.004
UCCUGCUACAGCUUGCAUACAAUUUAGUUA	0.00328 ± 0.0036
UCCUGGUACAGCUUCGUUAGUAUUUAGUAA	0.00142 ± 0.0052
UCCUGGAUGUCGAUGCAUAGUGUUUAGUUA	0.00184 ± 0.0036
UCCUGCUACAGCUUGCAUAGUAUUAGUUA	0.00126 ± 0.0052
UCCUGGAACAGCUUGCAUAGUAAUUUCAAA	0.00118 ± 0.0061
UCCUGGAUCAGCUAGCAUAGUAUUUAGAAA	0.00263 ± 0.0028
UCCUGGAUGUCGUUGCAAAGUAUUUAGUUA	0.00196 ± 0.0032
UCCUGGAUGUCGUUGCAUAUUAUUUAGUUA	0.00186 ± 0.0044

Sequence	pre-steady-state target cleavage rate
UCCUGGAACAGCUUCGUUAGUAUUUAGUUA	0.00213 ± 0.0023
UCCUCCUACACCUUCCAUAGUAUUUAGUUA	0.0014 ± 0.0031
UCCUGGAUGAGCUUGGUUAGUAUUUAGUAA	0.00269 ± 0.0034
UCCUGGAUGAGGAAGCAUAGUAUUUAGUUA	0.00111 ± 0.0061
UCCUGGAUGUGCUUGCAUACUAAUUAGUUA	0.00123 ± 0.0045
UCCUGGAACAGCUUGCAUAGUAAAAAGUAA	0.000864 ± 0.0051
UCCUCCUACAGCUUGCUAAGUAUUUACAAA	0.000447 ± 0.0091
UCCUGGAUGUCCUUCAUAGUAUUUAGUUA	0.00162 ± 0.0033
UCCUGGAUGAGUUGCAUAGUAUUUAGUUA	0.00178 ± 0.0023
UCCUGGAUGUGCAUGGAUAGUAUUUAGUUA	0.00307 ± 0.0034
UCCUGGAUGACCUUGCAUAGUAUUAAGUUA	0.0028 ± 0.0037
UCCUGGAUGUCCUUGCAUAGUAUAUAGAUA	0.00135 ± 0.006
UCCUCCUACAGCUUGGUUAGUAUUUAGAAA	0.0012 ± 0.0043
UCCUGGAACAGCUUGCUAGUAUUUAGUUA	0.00225 ± 0.0032
UCCUGGAUGUCGUUGCAUAGUAUUUAGUUG [g2:g18:cont:t1G]	0.00159 ± 0.0038
UCCUGGAUGUCGAAGCAUAGUAUAUUAGUUA	0.00129 ± 0.0074
UCCUGGAUCAGGAUGCAUAGUAUUUAGUAA	0.00261 ± 0.0029
UCCUGGAUGUCGAAGCUAUGUAUUUAGUUA	0.00048 ± 0.011
UCCUGGAACAGCUUCCAUAGUAUUAAGUUA	0.000817 ± 0.0088

What follows are sequences tested on EfPiwi piRISC loaded with L1MC piRNA (26 nt) (assay: pre-steady-state target cleavage rate (min^-1); guide: L1MC piRNA 5'p-UAACUAAAUACUAUGCAAGCUGUAGG; MIWI and MILI are mouse PIWI proteins and EfPiwi is from a freshwater sponge; tags in brackets are library labels; higher = faster piRNA-guided slicing of the target). Details: auxiliary factor: 500 nM Ephydatia muelleri Gtsf1.
In short: as §1

Sequence	pre-steady-state target cleavage rate
UCCUGGAACAGCUUGCUUAGUAUUUACAAA	0.00134 ± 0.0041
UCCUGGAUGAGGUUGCAUUGUAUUUAGUUA	0.00262 ± 0.0027
UCCUGGAUGAGGUUGGAUAGUAUUUAGUUA	0.00162 ± 0.0075
UCCUGGAUGUCGUUGCAUAGUACUUAGUUA	0.00365 ± 0.0035
UCCUGGAUGUCGAAGCAUAGUAGUUUAGUUA	0.000479 ± 0.012
UCCUGGUACAGCUACCAUAGUAUUUACAAA	0.000486 ± 0.0098
UCCUGCUUCAGCUUCCAUAGUAUUUAGUUA	0.00322 ± 0.0013
UCCUGGAACAGCUUCCAUUGUAUUUAGUUA	0.00345 ± 0.0017
UCCUGGAUGUCGAUGCAUCGUAUUUAGUUA	0.00141 ± 0.0047
UCCUGGAUGAGCUUGCAUAGUAAAAAGUUA	0.000594 ± 0.0065
UCCUGGAUGUCGUUGCAUAGUAUUUUGUUA	0.000507 ± 0.01
UCCUGGAUGUCCUUGCAUACUAUUAAGUUA	0.00032 ± 0.011
UCCUGGAUGAGGUUGCAUAGUAAUUAGUUA	0.00522 ± 0.003
UCCUGCUACAGCUUGCAUACAAUUUAGUUA	0.00307 ± 0.0028
UCCUGGUACAGCUUCGUUAGUAUUUAGUAA	0.000239 ± 0.024
UCCUGGAUGUCGAUGCAUAGUGUUUAGUUA	0.00218 ± 0.0049
UCCUGCUACAGCUUGCAUAGUAUUAGUUA	0.00404 ± 0.0022
UCCUGGAACAGCUUGCAUAGUAAUUUCAAA	0.00085 ± 0.004
UCCUGGAUCAGCUAGCAUAGUAUUUAGAAA	0.0036 ± 0.0022
UCCUGGAUGUCGUUGCAAAGUAUUUAGUUA	0.00141 ± 0.0053

Sequence	pre-steady-state target cleavage rate
UCCUGGAUGUCGUUGCAUAUUAUUUAGUUA	0.00212 ± 0.003
UCCUGGAACAGCUUCGUUAGUAUUUAGUUA	0.000406 ± 0.0063
UCCUCCUACACCUUCCAUAGUAUUUAGUUA	0.00329 ± 0.0018
UCCUGGAUGAGCUUGGUUAGUAUUUAGUAA	0.000691 ± 0.0063
UCCUGGAUGAGGAAGCAUAGUAUUUAGUUA	0.00139 ± 0.0043
UCCUGGAUGUGCUUGCAUACUAAUUAGUUA	0.00146 ± 0.0026
UCCUGGAACAGCUUGCAUAGUAAAAAGUAA	0.00258 ± 0.0039
UCCUCCUACAGCUUGCUAAGUAUUUACAAA	0.00134 ± 0.0059
UCCUGGAUGUCCUUCAUAGUAUUUAGUUA	0.00186 ± 0.0053
UCCUGGAUGAGUUGCAUAGUAUUUAGUUA	0.00429 ± 0.002
UCCUGGAUGUGCAUGGAUAGUAUUUAGUUA	0.00193 ± 0.004
UCCUGGAUGACCUUGCAUAGUAUUAAGUUA	0.003 ± 0.0051
UCCUGGAUGUCCUUGCAUAGUAUAUAGAUA	0.00136 ± 0.0049
UCCUCCUACAGCUUGGUUAGUAUUUAGAAA	0.00231 ± 0.0022
UCCUGGAACAGCUUGCUAGUAUUUAGUUA	0.00264 ± 0.0038
UCCUGGAUGUCGUUGCAUAGUAUUUAGUUG [g2:g18:cont:t1G]	0.00135 ± 0.0049
UCCUGGAUGUCGAAGCAUAGUAUAUUAGUUA	0.000242 ± 0.02
UCCUGGAUCAGGAUGCAUAGUAUUUAGUAA	0.00188 ± 0.003
UCCUGGAUGUCGAAGCUAUGUAUUUAGUUA	0.000224 ± 0.012
UCCUGGAACAGCUUCCAUAGUAUUAAGUUA	0.000954 ± 0.0035
